No constants are given. Whether binding was seen depends on the method and setting. In cells and extracts the contact can be indirect. These calls come from enrichment with a bait or labelling near it, and not all partners need be listed.
Columns and labels:
Dpy30 [1] = target: Dpy30 (UniProt Q99LT0); test: IP of Tox from EL4 lysate, mass spectrometry
Set [2] = target: Set (UniProt Q9EQU5); test: IP of Tox from EL4 lysate, mass spectrometry
Hmgb2 = target: T1, Hmgb2 (UniProt P30681); test: IP of Tox from EL4 lysate, mass spectrometry
T1 sequence (looked up): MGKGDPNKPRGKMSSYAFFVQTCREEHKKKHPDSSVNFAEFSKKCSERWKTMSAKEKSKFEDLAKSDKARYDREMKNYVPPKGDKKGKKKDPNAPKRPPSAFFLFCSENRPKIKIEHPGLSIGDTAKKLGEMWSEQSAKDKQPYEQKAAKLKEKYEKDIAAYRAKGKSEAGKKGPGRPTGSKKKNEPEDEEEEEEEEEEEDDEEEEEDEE

Amino acid sequences for entries named in this document (tags omitted). Residues count along the entry.
UniProt Q99LT0: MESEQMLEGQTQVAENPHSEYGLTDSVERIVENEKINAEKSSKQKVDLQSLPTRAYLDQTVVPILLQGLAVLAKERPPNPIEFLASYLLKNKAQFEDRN
UniProt Q9EQU5, residues 2-289: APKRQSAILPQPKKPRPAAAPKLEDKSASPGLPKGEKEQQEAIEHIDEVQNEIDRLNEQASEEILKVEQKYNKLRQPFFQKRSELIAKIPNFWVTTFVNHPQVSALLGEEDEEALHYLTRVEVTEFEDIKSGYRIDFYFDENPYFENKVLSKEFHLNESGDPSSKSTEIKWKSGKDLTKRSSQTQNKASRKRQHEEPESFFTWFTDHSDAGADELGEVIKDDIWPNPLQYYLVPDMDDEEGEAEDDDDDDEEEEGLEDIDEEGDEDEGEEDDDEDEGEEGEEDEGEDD
UniProt P63158: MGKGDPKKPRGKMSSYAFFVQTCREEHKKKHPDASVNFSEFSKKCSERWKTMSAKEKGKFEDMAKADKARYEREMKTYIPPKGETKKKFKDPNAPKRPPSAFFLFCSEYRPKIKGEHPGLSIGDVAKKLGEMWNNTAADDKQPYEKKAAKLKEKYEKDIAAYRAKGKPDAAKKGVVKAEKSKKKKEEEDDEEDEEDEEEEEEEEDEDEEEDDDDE
UniProt P60122: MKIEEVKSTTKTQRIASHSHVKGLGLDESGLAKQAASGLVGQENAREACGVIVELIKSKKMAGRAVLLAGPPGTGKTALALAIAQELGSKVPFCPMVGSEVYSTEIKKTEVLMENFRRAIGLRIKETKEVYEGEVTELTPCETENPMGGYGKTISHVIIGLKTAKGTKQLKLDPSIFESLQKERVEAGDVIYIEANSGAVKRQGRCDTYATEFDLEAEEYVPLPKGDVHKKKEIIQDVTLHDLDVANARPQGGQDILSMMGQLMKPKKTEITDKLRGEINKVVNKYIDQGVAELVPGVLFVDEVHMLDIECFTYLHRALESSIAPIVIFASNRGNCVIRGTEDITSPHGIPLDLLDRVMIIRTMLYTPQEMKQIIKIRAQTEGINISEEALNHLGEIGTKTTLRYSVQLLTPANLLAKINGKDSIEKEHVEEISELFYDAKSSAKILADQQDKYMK
UniProt Q9WTM5, residues 2-463: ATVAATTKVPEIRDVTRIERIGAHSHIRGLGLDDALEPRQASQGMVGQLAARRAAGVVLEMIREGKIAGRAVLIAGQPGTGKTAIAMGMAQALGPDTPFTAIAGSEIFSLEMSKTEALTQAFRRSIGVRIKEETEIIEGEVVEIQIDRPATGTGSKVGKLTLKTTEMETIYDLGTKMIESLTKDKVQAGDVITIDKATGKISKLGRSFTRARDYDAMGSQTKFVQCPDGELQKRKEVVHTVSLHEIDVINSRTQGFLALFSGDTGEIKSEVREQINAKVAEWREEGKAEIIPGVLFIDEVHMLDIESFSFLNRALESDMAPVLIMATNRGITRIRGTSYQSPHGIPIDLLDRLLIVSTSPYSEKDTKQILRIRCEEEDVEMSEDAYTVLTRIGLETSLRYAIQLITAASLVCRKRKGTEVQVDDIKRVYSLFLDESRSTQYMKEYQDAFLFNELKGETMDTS
UniProt Q66JW3: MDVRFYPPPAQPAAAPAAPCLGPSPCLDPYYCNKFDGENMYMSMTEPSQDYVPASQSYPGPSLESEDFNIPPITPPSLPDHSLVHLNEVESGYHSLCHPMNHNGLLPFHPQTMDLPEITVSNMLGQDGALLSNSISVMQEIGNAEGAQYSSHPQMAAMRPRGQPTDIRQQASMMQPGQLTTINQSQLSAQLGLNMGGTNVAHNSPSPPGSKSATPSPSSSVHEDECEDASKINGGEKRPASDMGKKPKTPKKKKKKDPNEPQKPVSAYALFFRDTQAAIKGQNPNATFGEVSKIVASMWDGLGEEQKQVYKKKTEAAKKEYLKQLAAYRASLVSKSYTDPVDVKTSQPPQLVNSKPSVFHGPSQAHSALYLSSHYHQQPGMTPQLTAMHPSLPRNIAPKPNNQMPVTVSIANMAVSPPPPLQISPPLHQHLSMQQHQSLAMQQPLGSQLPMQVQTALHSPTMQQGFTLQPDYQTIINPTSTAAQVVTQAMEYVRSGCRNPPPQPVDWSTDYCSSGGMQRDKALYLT

Hmgb1 = Hmgb1 (UniProt P63158); test: IP of Tox from EL4 lysate, mass spectrometry
Ruvbl1 [3] = target: Ruvbl1 (UniProt P60122); test: IP of Tox from EL4 lysate, mass spectrometry
Dpy30 [4] = target: Dpy30 (UniProt Q99LT0); test: summary in the description; assay not named there (IP and mass spectrometry in Example 10)
Set [5] = target: Set (UniProt Q9EQU5); test: as above
Ruvbl1 [6] = target: Ruvbl1 (UniProt P60122); test: as above
RuvBl2 = RuvBl2 (UniProt Q9WTM5); test: as above

Measured: binding

TOX (from UniProt Q66JW3 1-526)
binds: all assays above
